From patent US20140329755A1, “COMBINATION THERAPY FOR THE TREATMENT OF ARRHYTHMIAS OR HEART FAILURE” (Gilead Sciences, Inc., priority 2013, published 2014)
Some of these results come from one statement about several compounds together. Some ranges recur; such a range may be that of the whole group of compounds.

Tested on: CaMKII
Assay: Western blot of ATX-II-induced CaMKII phosphorylation
Details: 3 μmol/L ranolazine, 100 nmol/L GS967, 300 nmol/L KN-93, 300 nmol/L AIP individually

COc1ccccc1OCC(O)CN1CCN(CC(=O)Nc2c(C)cccc2C)CC1 (racemic) [ranolazine, (±)—N-(2,6-dimethylphenyl)-4-[2-hydroxy-3-(2-methoxyphenoxy)-propyl]-1-piperazineacetamide] was tested, and the “inhibition of ATX-II-induced CaMKII phosphorylation” value was 20-30%.
